According to patent US8058008B2, “Method for extracting quantitative information relating to an influence on a cellular response” (Fisher Bioimage APS, priority 1997, dated 2011):
For at least one compound, name, drawing or mass did not settle the structure.

How the values were obtained:
[1] = tested on: PKAc-F64L-S65T-GFP fusion; experiment: PKAc-F64L-S65T-GFP redistribution in stably transfected CHO cells (fluorescence microscopy, image analysis); format: cell-based, murine
Description: The catalytic subunit of the murine cAMP dependent protein kinase (PKAc) was fused C-terminally to a F64L-S65T derivative of GFP. The resulting fusion (PKAc-F64L-S65T-GFP) was used for monitoring in vivo the translocation and thereby the activation of PKA.
Untransfected CHO cells were used as the control. […] Expression of GR was maintained with 500 mg G418/ml (Neo marker) and PKAc-F64L-S65T-GFP was maintained with 500 mg Zeocin/ml (Sh ble marker). CHO cells were also simultaneously co-transfected with vectors containing the PKAc-F64L-S65T-GFP fusion and the human a2a adrenoceptor (hARa2a).
For fluorescence microscopy, cells were allowed to adhere to Lab-Tek chambered cover-glasses (Nalge Nunc Int., Naperville, Ill., USA) for at least 24 hours and cultured to about 80% confluence. Prior to experiments, the cells were cultured over night without selection pressure in HAM F-12 medium with glutamax (Life Technologies), 100 mg penicillin-streptomycin mixture ml^−1 and 0.3% FBS. This medium has low autofluorescence enabling fluorescence microscopy of cells straight from the incubator.
The cells were illuminated with a 100 W HBO arc lamp.
Method 1: Stepwise Procedure for Quantitation of Translocation of PKA:
3. The image histogram, i.e., the frequency of occurrence of each intensity value in the image, was calculated.
4. A smoothed, second derivative of the histogram was calculated and the second zero is determined. […]
5. The value determined in step 4 was subtracted from the image. […]
6. The variance (square of the standard deviation) of the remaining pixel values was determined. […]
Method 2: Alternative Method for Quantitation of PKA Redistribution:
1. […] The area of each image occupied by the aggregates is calculated by counting pixels in the segmented areas. […] A value of zero (0) indicates no redistribution of fluorescence from the starting condition. […]
As described above, the time it took for a response to come to completion was dependent on the forskolin dose (FIG. 5) In addition the degree of responses was also dose dependent. […] The amount of cAMP produced was measured in an SPA assay. […]

F64L-S65T-GFP = experiment: Control: F64L-S65T-GFP alone expressed in CHO cells; format: cell-based, Aequorea victoria; details: 50 mM forskolin (n=5)

Q: How did the “translocation of the fusion protein” value ([1]; 1, 10 and 50 mM forskolin, dbcAMP at 1 mM) turn out when C=C[C@@]1(C)CC(=O)[C@]2(O)[C@@]3(C)[C@@H](O)CCC(C)(C)[C@@H]3[C@H](O)[C@H](OC(C)=O)[C@@]2(C)O1 [forskolin, Forskolin] was run?
A: dramatic translocation of the fusion protein from a punctate distribution to an even distribution throughout the cytoplasm

Q: What about the “dose dependence of forskolin induced translocation of PKAc-F64L-S65T-GFP” value ([1]; FIGS. 4 and 6) of the same compound?
A: dose-response relationship

Q: And the “time to complete restoration of the punctate pattern after washing” value ([1]; washing 5-8 times with buffer after 10 μM forskolin (n=2))?
A: 2 to 5 min

Q: What about the “uniform diffuse distribution of GFP” value (F64L-S65T-GFP) of the same compound?
A: unaffected
